Results deposited as PubChem BioAssay AID1259283 (Sanger Institute, 2017).
Here is one part, drawn at random, of 794 reagents. 14 of all reagents (1.8%) count as active. 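Calls reflect only viability loss without drug; drug synergy does not enter the call.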 Unmarked entries are inactive. Viability is capped at 1. Not all columns of the deposit are shown. Not stated in the record: the amount of reagent, the time to read-out.

Aim: 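Kinases needed for HT115 growth and partners for drug synergy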 (primary screen)
System: HT115 colorectal cancer cells
Reagent: siRNA pool against human genes
Treatment: anchor drug given one day after siRNA: BYL719 at 1 µM, cetuximab at 5 µg/ml, trametinib at 10 nM, or DMSO vehicle alone
Measurement: 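Per-drug synergy scores plus replicate-mean viability relative to non-targeting pool #2 wells, also expressed as a robust z-score based on control wells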
Scale: robust z-score, knock-down alone: higher = more viable cells after knock-down; viability, DMSO vs non-targeting control: higher = more viable cells
Rule for the call: 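a gene counts as essential when its robust z-score with knock-down alone is below -3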
Calls: active = essential (z below -3, no drug); inactive = no change without drug

Target gene,"robust z-score, knock-down alone","viability, DMSO vs non-targeting control (fraction of control)"
UCKL1,0.789,1
PSKH2,-0.89,0.845
PDXK,0.789,1
PFKFB4,0.789,1
CHKA,-1.55,0.783
TRPM6,0.789,1
LATS1,0.74,0.996
STK17B,0.789,1
PIK3R2,-0.0523,0.922
PANK2,0.641,0.986
MAPK1,0.69,0.991
NUP98,-4.02 (active),0.556
PASK,-0.731,0.86
CDK11A,-0.413,0.889
CDK11B,-0.483,0.882
ADPGK,0.0793,0.934
TRIB3,0.375,0.962
STK26,0.789,1
CDK17,0.691,0.991
CREBBP,-0.759,0.857
